The results in this text go back to article PMC10912199.

By UniProt entry, the sequences of proteins in these tests, tags left out.
UniProt Q13547: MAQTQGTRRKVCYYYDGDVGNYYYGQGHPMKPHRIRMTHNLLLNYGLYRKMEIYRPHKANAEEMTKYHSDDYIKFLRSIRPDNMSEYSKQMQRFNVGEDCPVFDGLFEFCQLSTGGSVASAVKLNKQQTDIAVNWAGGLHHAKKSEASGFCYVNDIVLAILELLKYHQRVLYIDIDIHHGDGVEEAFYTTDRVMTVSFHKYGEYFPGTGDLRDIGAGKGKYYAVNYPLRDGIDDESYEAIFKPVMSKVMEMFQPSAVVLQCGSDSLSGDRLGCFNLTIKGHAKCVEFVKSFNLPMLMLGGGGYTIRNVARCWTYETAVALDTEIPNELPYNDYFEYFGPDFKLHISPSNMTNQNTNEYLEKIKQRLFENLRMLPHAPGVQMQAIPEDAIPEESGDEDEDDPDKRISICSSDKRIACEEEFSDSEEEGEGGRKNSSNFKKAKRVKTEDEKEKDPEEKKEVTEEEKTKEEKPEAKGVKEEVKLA

The target of this assay is histone deacetylase 1 (HDAC1) (human (endogenous in CRC cells)) (UniProt Q13547). The assay can be described thus: co-IP; Pierce immunoprecipitation kit; HDAC1 primary antibody (10 µg) cross-linked to AminoLink coupling resin; proteins extracted from CRC cells incubated with the resin for 2 h at room temperature; eluate detected by Western Blot. On the technique in general: Immunoblotting shows a protein as a band on a membrane.

No constants are given. Whether binding was seen depends on the method and setting. In cells and extracts the contact can be indirect.

B1: Potassium Channel Tetramerization Domain Containing 15 (KCTD15) (protein, UniProt Q96SI1 1-283)
chain: MPHRKERPSGSSLHTHGSTGTAEGGNMSRLSLTRSPVSPLAAQGIPLPAQLTKSNAPVHIDVGGHMYTSSLATLTKYPDSRISRLFNGTEPIVLDSLKQHYFIDRDGEIFRYVLSFLRTSKLLLPDDFKDFSLLYEEARYYQLQPMVRELERWQQEQEQRRRSRACDCLVVRVTPDLGERIALSGEKALIEEVFPETGDVMCNSVNAGWNQDPTHVIRFPLNGYCRLNSVQVLERLFQRGFSVAASCGGGVDSSQFSEYVLCREERRPQPTPTAVRIKQEPLD
Consider B1, for which the binding result is listed as “no binding”.
